Hit rate of the full screen: of about 400,000 compounds, about 13,000 (3.2%) were called active. The inconclusive results got no clear call from the source; some entries with a clear call stand among them for comparison. Calls come from the whole dose curve; as a rule, active = well fitted cell-killing curve with a large enough effect; inconclusive = small, poorly fitted or top-dose-only effect, or effect the other way; inactive = flat fitted curve, though single readings scatter. Potencies of inconclusive entries are doubtful fits and often do not repeat.
assay: qHTS assay for MDR1-selective chemotherapeutics: Primary screen using the drug-selected MDR subline cells KB-V1; details: KB-V1 MDR cells viability, CellTiter-Glo, 72 h; activity change, negative = cytotoxicity: at 46.1 µM (top of the series); note: nearly all actives have a fitted effect of over 60% in size
Procedure, shortened: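 KB-V1, DMEM (no phenol red) + 10% FBS; cpd pin-transferred, titration series; 72 h, 37 degrees C; CellTiter-Glo, luminescence. Data normalized, curve-fit.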
% is set by controls: 0 for no effect and ±100 for the full control effect; potency is the fitted concentration of half-maximal effect.

SMILES | activity change, negative = cytotoxicity | Potency
Cc1ccc(S(=O)(=O)N(CC(=O)Nc2ccccc2C(=O)O)c2cccc(Cl)c2C)cc1 | inactive: 0.0732% | –
Cc1nc(NCCc2ccccc2F)c(C#N)c(C)c1[N+](=O)[O-] | – | inconclusive: 20.6 µM [cytotoxic, partial curve]
Cc1ccc(Cn2nnc3c(=O)n(CC(=O)N4CCN(c5ccccc5)CC4)cnc32)cc1 | – | active: 5.17 µM
CC(C(c1ccc2c(c1)OCO2)c1c(N)n(C)c(=O)n(C)c1=O)[N+](=O)[O-] (stereo not given) | – | inconclusive: 13 µM [cytotoxic, partial curve]
Cc1cc(C)c2oc(-c3cccc(NC(=O)c4ccc(Br)o4)c3)nc2c1 | inactive: 3.1% | –
Cc1ccc(S(=O)(=O)Nc2ccc3c(c2)nc2n3CCN(Cc3ccccc3)C2)cc1 | – | active: 16.4 µM
Clc1ccc(-n2nnnc2-c2cnc(-c3ccccn3)nc2-c2cccs2)cc1 | – | inconclusive: 25.9 µM [cytotoxic, single point]
CCOC(=O)/C=C/C(=O)OCC(=O)Nc1cccc(Cl)c1Cl | – | inconclusive: 1.64 µM [rising, partial curve]
COC(=O)c1c(C(=O)OC)c2oc3ccccc3n2c1Cl | – | inconclusive: 16.4 µM [cytotoxic, partial curve]
COc1ccc(-c2ccnc3ncnn23)cc1 | – | inconclusive: 20.6 µM [cytotoxic, single point]
COc1ccc(N(CC(=O)NC2CCCCC2)S(=O)(=O)c2cccs2)cc1 | inactive: 20.2% | –
COc1ccccc1CNS(=O)(=O)c1ccc2[nH]c3c(c2c1)CCCCC3 | inactive: -5.89% | –
COc1cc(C(=O)O/N=C2/C=CC(=O)C(C)=C2C)cc(OC)c1OC | – | inconclusive: 16.4 µM [cytotoxic, single point]
COc1ccc(OCc2nc3c4cc(OC)c(OC)cc4nc(=S)n3[nH]2)cc1 | – | inconclusive: 7.31 µM [cytotoxic, partial curve]
Cc1[nH]c2c(ccc3ccccc32)c1C1C(CCN)C1(C)C (stereo not given) | – | inconclusive: 16.4 µM [cytotoxic, single point]
CN(C)c1ccc(-c2nn3c(C4CCCCC4)nnc3s2)cc1 | inactive: 0% | –
CCCCN(CCCC)CC(O)c1cc(Cl)cc2c1-c1ccc(Cl)cc1C2=Cc1ccc(Cl)cc1 (stereo not given) | – | active: 20.6 µM
O=C(NCc1ccccc1Br)C1CCCN(C(=O)N2CCOc3ccccc32)C1 (stereo not given) | inactive: -3.28% | –
COc1ccc(OCC(O)Cn2c(=N)n(Cc3ccccc3)c3ccccc32)cc1 (stereo not given) | – | inconclusive: 18.4 µM [cytotoxic, single point]
COc1ccc(CNC(=O)COc2ccc(OC)cc2)cc1 | inactive: 2.71% | –
O=C(Nc1cccnc1Cl)c1ccc2c(Cl)c3c(nc2c1)CCC3 | – | inconclusive: 8.2 µM [cytotoxic, partial curve, poor fit]
O=C(COc1ccc2c3c(c(=O)oc2c1)CCC3)NC1CCCCC1 | – | inconclusive: 29.1 µM [cytotoxic, single point]
CCCCNC(=O)c1nc(-c2ccccc2)oc1-c1ccc(Cl)cc1 | – | inconclusive: 14.6 µM [cytotoxic, partial curve, poor fit]

Reprinted at random: three compounds from above.
SMILES | activity change, negative = cytotoxicity | Potency
CC(C(c1ccc2c(c1)OCO2)c1c(N)n(C)c(=O)n(C)c1=O)[N+](=O)[O-] (stereo not given) | – | inconclusive: 13 µM [cytotoxic, partial curve]
O=C(Nc1cccnc1Cl)c1ccc2c(Cl)c3c(nc2c1)CCC3 | – | inconclusive: 8.2 µM [cytotoxic, partial curve, poor fit]
CCCCNC(=O)c1nc(-c2ccccc2)oc1-c1ccc(Cl)cc1 | – | inconclusive: 14.6 µM [cytotoxic, partial curve, poor fit]

(continued)

SMILES | activity change, negative = cytotoxicity | Potency
O=C(NC1CCCC1)C(c1ccccc1)N(Cc1ccc(F)cc1)C(=O)c1csnn1 (stereo not given) | – | inconclusive: 3.26 µM [cytotoxic, full curve, poor fit]
CC(C)Cc1nc(N2CCOCC2)c(C#N)c2c1COC(C)(C)C2 | – | inconclusive: 4.11 µM [cytotoxic, partial curve]
CCOc1ccc(NC(=O)CCC(=O)NNC(=O)COc2ccccc2C)cc1 | inactive: -3.86% | –
O=C(CNC(=O)C1CCCCC1)OCC(=O)c1ccc2c(c1)CCC2 | inactive: 0% | –
Cc1ccc(NC(=O)CSc2ncnc3ccccc23)cc1S(=O)(=O)N1CCCCC1 | inactive: -2.53% | –
COc1ccc(C(=O)Nc2sc(C)c(-c3ccccc3)c2C#N)cc1OC | – | inconclusive: 18.4 µM [cytotoxic, single point]
CNC(=S)N/N=C/c1cccc(OCc2ccccc2F)c1 | – | inconclusive: 18.4 µM [cytotoxic, single point]
Cc1cccc(C)c1-n1nnnc1C1(C)CCC(=O)N1Cc1ccc(F)cc1 (stereo not given) | – | inconclusive: 10.3 µM [cytotoxic, partial curve]
COc1ccc(CC(=O)N(Cc2ccccc2)c2cccc(C)c2)cc1OC | – | inconclusive: 29.1 µM [cytotoxic, single point]
O=C(Nc1ccc(C(F)(F)F)cc1)c1cc(S(=O)(=O)NC2CCCCCC2)ccc1F | – | active: 18.4 µM
OC(COc1ccc(Cl)cc1Cl)Cn1ccnc1 (stereo not given) | – | inconclusive: 29.1 µM [cytotoxic, single point]
Cc1ccccc1S(=O)Cc1ccc(C(=O)NC2CCCCCC2)o1 (stereo not given) | inactive: -18.2% | –
CCN(CC)Cc1cc(CCNC(=O)c2ccc(Cl)cc2)ccc1O | – | inconclusive: 29.1 µM [cytotoxic, single point]
CCOc1ncccc1C(=O)NNC(=O)c1csc(N2CCOCC2)n1 | – | inconclusive: 9.2 µM [cytotoxic, partial curve]
O=C(N/N=C\c1ccc(Cl)s1)C1COc2ccccc2O1 (stereo not given) | – | inconclusive: 29.1 µM [cytotoxic, single point]
Cc1cc(/C=C(\C#N)C(=O)NCC2CCCO2)c(C)n1-c1ccc(Cl)cc1 (stereo not given) | – | active: 4.11 µM
O=C(COc1ccc(S(=O)(=O)N2CCCC2)cc1)Nc1ccc2c(c1)OCCO2 | – | inconclusive: 9.2 µM [cytotoxic, partial curve]
O=C(O)c1ccc(NC(=O)c2ccccc2NC(=O)c2ccccc2Br)cc1 | – | inconclusive: 29.1 µM [rising, single point]
Cc1c(NC(=S)NC(=O)c2cc3ccccc3o2)c(=O)n(-c2ccccc2)n1C | – | inconclusive: 20.6 µM [rising, single point]
COc1cc(CNC(C)(C)CO)cc(Br)c1OCc1ccc(Cl)cc1Cl | – | active: 18.4 µM
NC(=O)C1=C[C@H](c2ccccc2)C[C@H](OCc2ccc(CO)cc2)O1 | – | inconclusive: 29.1 µM [rising, partial curve, poor fit]
Cc1ccccc1CNC(=O)C(=O)NCCC1CCCCN1S(=O)(=O)c1cccs1 (stereo not given) | – | inconclusive: 18.4 µM [cytotoxic, partial curve, poor fit]

— PubChem BioAssay AID1347076 (National Center for Advancing Translational Sciences (NCATS), 2019)
